Protein sequences, listed by entry. Tags and fused reporters are not part of them. Lines headed by an entry give the natural chain unless they say otherwise; changes in a name come on top. Residues count along the entry.
UniProt P03888: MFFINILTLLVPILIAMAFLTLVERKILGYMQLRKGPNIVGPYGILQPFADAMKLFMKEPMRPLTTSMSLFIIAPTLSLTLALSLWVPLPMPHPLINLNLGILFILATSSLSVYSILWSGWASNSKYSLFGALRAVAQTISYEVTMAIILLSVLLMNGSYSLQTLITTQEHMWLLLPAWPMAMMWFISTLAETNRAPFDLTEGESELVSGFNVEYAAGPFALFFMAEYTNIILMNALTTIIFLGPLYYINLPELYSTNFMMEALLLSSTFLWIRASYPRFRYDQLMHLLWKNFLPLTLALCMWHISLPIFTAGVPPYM
UniProt Q91WD5, 34-463: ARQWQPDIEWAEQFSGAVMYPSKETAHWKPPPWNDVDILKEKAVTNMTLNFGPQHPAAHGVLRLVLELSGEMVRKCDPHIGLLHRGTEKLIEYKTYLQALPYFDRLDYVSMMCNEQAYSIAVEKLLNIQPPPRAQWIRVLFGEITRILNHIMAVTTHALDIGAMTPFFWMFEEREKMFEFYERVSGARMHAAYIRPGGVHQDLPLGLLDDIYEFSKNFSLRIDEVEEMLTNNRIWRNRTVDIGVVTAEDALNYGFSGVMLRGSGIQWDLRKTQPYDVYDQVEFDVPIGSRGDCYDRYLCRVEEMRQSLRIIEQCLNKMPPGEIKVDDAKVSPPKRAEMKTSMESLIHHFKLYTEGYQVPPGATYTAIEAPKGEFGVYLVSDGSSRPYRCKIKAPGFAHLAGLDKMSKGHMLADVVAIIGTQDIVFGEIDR
UniProt Q9DC70, 36-224: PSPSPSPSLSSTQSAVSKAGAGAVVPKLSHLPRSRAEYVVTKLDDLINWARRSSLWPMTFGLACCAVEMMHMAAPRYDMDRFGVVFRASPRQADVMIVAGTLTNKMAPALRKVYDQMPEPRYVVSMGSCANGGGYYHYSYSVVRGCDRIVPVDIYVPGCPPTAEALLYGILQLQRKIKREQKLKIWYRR

According to publication PMC11079024, “Identification of a family of species-selective complex I inhibitors as potential anthelmintics” (Nature Communications, 2024):

Molecular target: M. musculus (heart) complex I (Mus musculus, UniProt P03888+Q91WD5+Q9DC70)
Type: biochemical
Settings: read-out: M. musculus complex I IC50
Method: Six 8–10-week-old C57Bl/6 female mice (Charles River) were freshly dissected, and their livers and hearts collected into separate 1.5 mL microcentrifuge tubes. Organs were flash-frozen in liquid nitrogen and stored at −80 °C prior to use. The heart of a freshly slaughtered adult cow was obtained from a local abattoir (Peel Sausage Inc.), chopped into ~1-inch cubes and collected into 50 mL falcon tubes. Falcon tubes were flash-frozen in a container of dry ice and stored at −80 °C prior to use. Isolation of mitochondria from all mammalian tissue was carried out following the protocol described above. […]
The enzymatic activities of individual ETC complexes (I-IV) were assessed spectrophotometrically in isolated mitochondria using a Varioskan LUX Multimode plate reader (ThermoFisher Scientific). […] The BCA assay (Walker, 1994) was used to quantify the protein concentration of mitochondria suspensions; solutions were diluted to a concentration of 0.2 mg/mL for use in all assays. […] Immediately following the addition of mitochondria, absorbance was measured (complex I and II: 600 nm; complex III and IV: 550 nm) in 30 s intervals over 15 min. Enzymatic activity was determined in each reaction by plotting absorbance versus time and calculating the slope of the curve during the initial linear phase of the reaction. […]

In the case of `C=C(C)[C@H]1Cc2c(ccc3c2O[C@@H]2COc4cc(OC)c(OC)cc4[C@@H]2C3=O)O1` [Rotenone, reference compound], the IC50 is reported as 37 nM.
